This assay relates to EA.hy926 cells. Kind of assay: Protective effect against H2O2-induced oxidative damage, MTT assay. Format: cell-based. As to conditions: Homo sapiens, EA.hy 926, 4 h, protection against H2O2-induced damage (400 µmol·L^−1, 4 h), n = 3, mean ± SD. As for the experimental part: Hydrogen peroxide (H2O2), a small molecule and functions as oxidative stress and a second messenger which contributes to cell damage or death, could directly induce inflammation in several cell lines. H2O2-induced cell damage is a commonly used model for antioxidant activity evaluation. […] Thus, the concentration of 400 µmol·L^−1 at 4 h was chosen as the model.
Compound SC2 stock solutions were prepared in DMSO. The stock solutions were diluted with FBS free DMEM to different target concentrations (DMSO concentrations ≤ 0.5% v:v). Cells (100 μL, 2 × 10^5 cells∙mL^−1) were seeded on 96-well plates and cultured for 24 h. […] A microplate reader (SpectraMaxPlus384, Molecular Devices, United States) was used to record the absorbance at 490 nm for each well of the plates. Cell viability was measured via MTT assay. […]
Cells (100 μL, 2 × 10^5 cells·mL^−1) were seeded in 96-well plates for 24 h. Cells were treated with different groups and cell viability was measured via MTT assay. The protection rates to oxidative damage were determined and EC50 values were calculated. The protection rates to cells were calculated using the following formula: Protection rate (%) = (Apretreatment group − Amodel group)/(Acontrol group − Amodel group) × 100%.

Structures are written as SMILES.

Turning to `CC(C)OC(=O)C(C)(C)Oc1ccc(C(=O)c2ccc(Cl)cc2)cc1` [Fenofibrate, fenofibrate, reference compound], the EC50 (commonly the concentration needed to bring the measured effect to its halfway point) was 6.92 ± 0.61 µM.

For the origin of these results see publication PMC8587043, “An Investigation into the Interaction between Double Hydroxide-Based Antioxidant Benzophenone Derivatives and Cyclooxygenase 2” (Molecules, 2021).
